Literature values, collected in paper PMC9246766 (Pharmaceutical research, 2022).

Conditions: total maximum plasma concentration; ref http://www.micromedexsolutions.com/; cited from earlier work

In the case of CCCNCC(O)COc1ccccc1C(=O)CCc1ccccc1 (stereo not shown) [propafenone], the Cmax is given as 7.9 µM.
